Measurements as given in publication PMC12205872, “ESSENTIAL MEIOTIC ENDONUCLEASE 1 is required for chloroplast development and DNA repair in rice”.
Construct, isoform or probe ends are uncertain for at least one entry.

Chains of the proteins cited; added tags and fusions are not shown. A line that says so, or that is headed by a name, gives the form on record, which may keep a tag or linker.
OsEME1-C (MBP removed by TEVp) (Oryza sativa L. japonica cv. KY131), one chain, as listed by the source: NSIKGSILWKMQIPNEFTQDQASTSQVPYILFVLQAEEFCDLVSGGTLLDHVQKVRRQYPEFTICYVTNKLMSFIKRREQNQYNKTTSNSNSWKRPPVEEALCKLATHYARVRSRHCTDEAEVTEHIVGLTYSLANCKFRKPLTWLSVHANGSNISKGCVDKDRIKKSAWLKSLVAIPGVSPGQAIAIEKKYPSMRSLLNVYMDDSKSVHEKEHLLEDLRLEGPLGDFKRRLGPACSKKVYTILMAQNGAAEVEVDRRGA

System: OsEME1-C (MBP removed by TEVp) (Oryza sativa L. japonica cv. KY131)
Test: EMSA
Conditions: 20 uM protein, 1 mM Mg2+, 5 mM ATP, EMSA/cleavage: 25 mM Tris-HCl pH 7.5, 1 mM MgCl2, 1 mM DTT, 2.5 uM Cy5 substrate, 30 C, recombinant protein, protein details: MBP cleaved by TEVp

## CGTCGATGACATAGACTTCGGGGACTTCTTCCTGAGGCTGGAGGACGGTG / GAAGTCGGTGAAGATCTCGGCCGGGGTCCCCGAAGTCTATGTCATCGACG [OsGLK1-Y12]
label: 5' Cy5 on GLK1 X1
  binding result: binds

## GACGCTGCCGAATTCTGGCTTGCTAGGACATCTTTGCCCACGTTGACCCG / GCGATAGTCTCTAGACAGCATGTCCTAGCAAGCCAGAATTCGGCAGCGTC [Y12]
Also cleaved
  binding result: binds

## GAAGAAGAAGGACGACGAGGAAAGGTCGTCGTCGTTGCCGGAGGAGAAAG / CTCCGTCGTCACCGCGCTCAGGACCCCTTTCCTCGTCGTCCTTCTTCTTC [OsGLK2-Y12]
label: 5' Cy5 on GLK2 X1
  binding result: binds
